Test results: US20110183848A1, “Piperazine Compounds With Herbicidal Effect” (BASF SE, priority 2008, published 2011)
Some results were stated once for a whole list of compounds, not compound by compound.

Experiments:
SETVI [1] = assay: greenhouse test, post-emergence treatment; assay type: in vivo, Setaria viridis; conditions: scale 0 to 100
AMARE = assay: greenhouse test, post-emergence treatment; assay type: in vivo, Amaranthus retoflexus; conditions: scale 0 to 100
SETVI [2] = assay: greenhouse test, pre-emergence treatment; assay type: in vivo, Setaria viridis; conditions: scale 0 to 100
SETFA = assay: greenhouse test, pre-emergence treatment; assay type: in vivo, Setaria faberi; conditions: scale 0 to 100
ECHCG = assay: greenhouse test, pre-emergence treatment; assay type: in vivo, Echinochloa crus-galli; conditions: scale 0 to 100
APESV = assay: greenhouse test, pre-emergence treatment; assay type: in vivo, Apera spica-venti; conditions: scale 0 to 100
ABUTH = assay: greenhouse test, post-emergence treatment; assay type: in vivo, Abutilon theophrasti; conditions: application rate 1.0 kg/ha, scale 0 to 100

Row | SMILES | herbicidal activity against APESV (APESV; application rate 0.5 kg/ha) | herbicidal activity against SETFA (SETFA; application rate 0.5 kg/ha) | herbicidal activity against ECHCG (ECHCG; application rate 0.5 kg/ha) | other results
1 | CN1C(=O)C(C)(Cc2ccccc2)N(S(C)(=O)=O)C(=O)C1=Cc1ccccc1C#N (stereo not drawn) [I-2] |  |  |  | herbicidal activity against SETVI (SETVI [1]; application rate 1.0 kg/ha): very good (a very good herbicidal activity is given at values of at least 85); herbicidal activity against AMARE (AMARE; application rate 1.0 kg/ha): very good (a very good herbicidal activity is given at values of at least 85)
2 | CN1C(=O)C(C)(Cc2ccccc2)N(S(C)(=O)=O)C(=O)C1=Cc1ccccc1[N+](=O)[O-] (stereo not drawn) [I-3] |  |  |  | herbicidal activity against SETVI (SETVI [1]; application rate 0.5 kg/ha): very good (a very good herbicidal activity is given at values of at least 85)
3 | CCOC(=O)CN1C(=O)C(=Cc2ccccc2C#N)N(C)C(=O)C1(C)Cc1ccccc1 (stereo not drawn) [I-5] |  |  |  | herbicidal activity against SETVI (SETVI [2]; application rate 1.0 kg/ha): very good (a very good herbicidal activity is given at values of at least 85); herbicidal activity against SETFA (SETFA; application rate 1.0 kg/ha): very good (a very good herbicidal activity is given at values of at least 85); herbicidal activity against ECHCG (ECHCG; application rate 1.0 kg/ha): very good (a very good herbicidal activity is given at values of at least 85)
4 | CCOC(=O)CN1C(=O)C(=Cc2ccccc2[N+](=O)[O-])N(C)C(=O)C1(C)Cc1ccccc1 (stereo not drawn) [I-10] | very good (a very good herbicidal activity is given at values of at least 85) |  |  | herbicidal activity against AMARE (AMARE; application rate 0.5 kg/ha): very good (a very good herbicidal activity is given at values of at least 85)
5 | CCCCCN1C(=O)C(=Cc2ccccc2C#N)N(C)C(=O)C1(C)Cc1ccccc1 (stereo not drawn) [I-21] |  |  |  | herbicidal activity against SETVI (SETVI [1]; application rate 0.5 kg/ha): very good (a very good herbicidal activity is given at values of at least 85); herbicidal activity against AMARE (AMARE; application rate 0.5 kg/ha): very good (a very good herbicidal activity is given at values of at least 85)
6 | CN1C(=O)C(C)(Cc2ccccc2)N(CC2CC2)C(=O)C1=Cc1ccccc1[N+](=O)[O-] (stereo not drawn) [I-24] | very good (a very good herbicidal activity is given at values of at least 85) | very good (a very good herbicidal activity is given at values of at least 85) | very good (a very good herbicidal activity is given at values of at least 85) | herbicidal activity against SETVI (SETVI [2]; application rate 0.5 kg/ha): very good (a very good herbicidal activity is given at values of at least 85)
7 | CN1C(=O)C(C)(Cc2ccccc2)N(CC2CC2)C(=O)C1=Cc1ccccc1C#N (stereo not drawn) [I-25] |  |  |  | herbicidal activity against ABUTH (ABUTH): very good (a very good herbicidal activity is given at values of at least 85)
8 | COCCN1C(=O)C(=Cc2ccccc2C#N)N(C)C(=O)C1(C)Cc1ccccc1 (stereo not drawn) [I-92] | very good (a very good herbicidal activity is given at values of at least 85) | very good (a very good herbicidal activity is given at values of at least 85) | very good (a very good herbicidal activity is given at values of at least 85) | 
9 | CN1C(=O)C(C)(Cc2ccccc2)N(CCCCl)C(=O)C1=Cc1ccccc1C#N (stereo not drawn) [I-94] | very good (a very good herbicidal activity is given at values of at least 85) | very good (a very good herbicidal activity is given at values of at least 85) | very good (a very good herbicidal activity is given at values of at least 85) | 
10 | CN1C(=O)C(C)(Cc2ccccc2)N(CCCCl)C(=O)C1=Cc1ccccc1[N+](=O)[O-] (stereo not drawn) [I-95] | very good (a very good herbicidal activity is given at values of at least 85) | very good (a very good herbicidal activity is given at values of at least 85) | very good (a very good herbicidal activity is given at values of at least 85) | 
11 | COCN1C(=O)C(=Cc2cccnc2OC)N(C)C(=O)C1(C)Cc1ccccc1 (stereo not drawn) [I-103] | very good (a very good herbicidal activity is given at values of at least 85) | very good (a very good herbicidal activity is given at values of at least 85) | very good (a very good herbicidal activity is given at values of at least 85) | 
12 | CN1C(=O)C(C)(Cc2ccccc2)N(CC#N)C(=O)C1Cc1ccccc1C#N (stereo not drawn) [II-1] | very good (a very good herbicidal activity is given at values of at least 85) | very good (a very good herbicidal activity is given at values of at least 85) | very good (a very good herbicidal activity is given at values of at least 85) | 
13 | CC(C)=CCN1C(=O)C(Cc2ccccc2C#N)N(C)C(=O)C1(C)Cc1ccccc1 (stereo not drawn) [II-14] | very good (a very good herbicidal activity is given at values of at least 85) | very good (a very good herbicidal activity is given at values of at least 85) | very good (a very good herbicidal activity is given at values of at least 85) | 
14 | CC#CCN1C(=O)C(Cc2ccccc2C#N)N(C)C(=O)C1(C)Cc1ccccc1 (stereo not drawn) [II-15] | very good (a very good herbicidal activity is given at values of at least 85) | very good (a very good herbicidal activity is given at values of at least 85) | very good (a very good herbicidal activity is given at values of at least 85) | 
15 | CCOc1ncccc1CC1C(=O)N(COC)C(C)(Cc2ccccc2)C(=O)N1C (stereo not drawn) [II-26] |  |  |  | herbicidal activity against SETFA (SETFA; application rate 0.3 kg/ha): very good (a very good herbicidal activity is given at values of at least 85); herbicidal activity against APESV (APESV; application rate 0.3 kg/ha): very good (a very good herbicidal activity is given at values of at least 85); herbicidal activity against ECHCG (ECHCG; application rate 0.3 kg/ha): very good (a very good herbicidal activity is given at values of at least 85)
16 | COCN1C(=O)C(Cc2cccnc2CC(F)(F)F)N(C)C(=O)C1(C)Cc1ccccc1 (stereo not drawn) [II-31] | very good (a very good herbicidal activity is given at values of at least 85) | very good (a very good herbicidal activity is given at values of at least 85) | very good (a very good herbicidal activity is given at values of at least 85) | 
17 | COCN1C(=O)C(Cc2cccnc2C(F)(F)C(F)(F)F)N(C)C(=O)C1(C)Cc1ccccc1 (stereo not drawn) [II-33] | very good (a very good herbicidal activity is given at values of at least 85) | very good (a very good herbicidal activity is given at values of at least 85) | very good (a very good herbicidal activity is given at values of at least 85) | 
